Test [1] deals with T1, human SAS1B (human) (UniProt Q6HA08).
T1 sequence (looked up): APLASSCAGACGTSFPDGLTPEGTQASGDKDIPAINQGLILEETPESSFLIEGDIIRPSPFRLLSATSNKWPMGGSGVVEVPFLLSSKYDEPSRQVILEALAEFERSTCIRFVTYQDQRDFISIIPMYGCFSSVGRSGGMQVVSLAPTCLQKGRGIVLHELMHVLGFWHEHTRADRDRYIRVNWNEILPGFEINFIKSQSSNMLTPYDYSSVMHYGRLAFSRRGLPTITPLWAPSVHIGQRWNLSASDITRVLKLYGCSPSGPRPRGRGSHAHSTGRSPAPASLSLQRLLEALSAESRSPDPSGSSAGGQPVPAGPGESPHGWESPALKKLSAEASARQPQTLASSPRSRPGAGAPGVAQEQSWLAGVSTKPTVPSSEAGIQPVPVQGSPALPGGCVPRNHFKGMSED
Put plainly: live staining of human oocytes, fluorescence microscopy.

For test [2], the target named is T1, human SAS1B (human). Put plainly: live staining of zona-free human oocytes, fluorescence microscopy.
Test [3] concerns the target T1, human SAS1B (human). Put plainly: cell-surface flow cytometry on AsPc-1, Colo205, SNU539, SAS1B-HEK293T and SAS1BX1-HEK293T.

Results are given in words; binding and its absence hold for the method and conditions named. Some entries that bind do so weakly or less than the wild type.

B1: monoclonal antibody OV119 (antibody, V domains shown)
VH: EVQLQESGPELVKPGASVKISCKTSGYTFTEYPMHWVKQSHGKSLEWIGGINPNNGDTTYNQRFKGKATLTVDKSSGTAYMELRSLTSEDSAVYYCVPNFDWFAYWGQGTLVTVSP
VL: DVLMTQSPLSLPVSLGDQASISCRSSQSIVHSYGNTYLEWYLQKPGQSPKLLIYKVSNRFSGVPDRFSGSGSGTDFTLRISRVEAEDLGIYYCFQGSHLPFTFGGGTKLEIK
notes: Mouse hybridoma monoclonal IgG; also called naked OV119 (unconjugated)
For B1, the binding result in the test with human SAS1B (human) [1], with human SAS1B (human) [2] and in the test with human SAS1B (human) [3] was “binds” throughout.

B2: monoclonal antibody OV123 (antibody, V domains shown)
VH: EVQLQESGPGLVKPSQSLSLTCTVTGYSITSDNAWNWIRQFPGNKLEWMGYISYSGRTSYNPSLKSRISVTRDTSKNRFFLQLNSVTTEDTATYYCARIGSYFTMDYWGQGTSVTVSS
VL: DVVMTQTPLSLSVGLGDQASISCRSSQSLVHINGSTYLHWYLQKPGQSPKLLIYKIANRFSGVPDRFSGSGSGTDFTLKISRVEAEDLGAYFCSQSTHVPLTFGAGTKLEIK
B2: the binding entry with human SAS1B (human) [1] and in the test with human SAS1B (human) [3] was “binds” throughout.

B3: monoclonal antibody OV115 (antibody, V domains shown)
VH: DVQLQESGPGLVKPSQSLSLTCTVTGYSLTSDYAWNWIRQFPGKKVEWMGYLSYSGRTSYNPSLKSRISITRDTSRNQFFLQLNSVTTEDTATYYCARMGGNFGFDYWGQGTTLTVST
VL: GIVMTQAPLSLPVSLGDQASISCRSSQSLVHINGSTYLHWYLQKPGQSPNLLIYKVSYRFSGVPDRFSGSGSGTDFTLKITRVEAEDLGVYFCSQSTHVPLTFGSGTKLEIK
With B3, the binding result in the test with human SAS1B (human) [1] and in the test with human SAS1B (human) [3] was “binds” throughout.

B4: monoclonal antibody OV121 (antibody, V domains shown)
VH: EVQLQESGPGLVKPSQSLSLTCTVTGYSVTSDSAWNWIRQFPGNKLEWMGYISYSGSTTYNPSLKSRISITRDTSENQFFLQLRSVTTEDTATYYCARLGNLFTMDYWGQGTSVTVSA
VL: EILLTQSPVILAASPGEKVTITCSASSSLNYMNWYQQRPGSSPKIWIYGISNLASGVPARFSGSGSGTSFSFTINSMEAEDVATYYCQQRSSFPFTFGSGTKLEIK
As for B4, the binding entry in the test with human SAS1B (human) [1] and with human SAS1B (human) [3] was “binds” each time.

The values above are taken from patent US20230265212A1 (OVERA, published 2023).
